Results are given in words; binding and its absence hold for the method and conditions named. Binding can be weak; no strength is given. Each block holds one binder with its values, some of them ahead of it.
Assays:
[1] = biological target: PCSK9Δhelix (human); assay: phage competition ELISA
[2] = biological target: PCSK9Δhelix (human); assay: SPR
[3] = biological target: PCSK9Δhelix (human); assay: TR-FRET competition, Ab20 as competitor
[4] = biological target: PCSK9Δhelix (human); assay: Ab20 TR-FRET competition and SPR
[5] = biological target: PCSK9Δhelix (human); assay: phage spot ELISA

Binder: SGCRLPWNLQRIGLPC [K9gvpep4]
binding [1]: binds

Binder: SGDLMPWNLVRIGLLR [K9gvpep7]
binding [1]: binds

Binder: TVFTSWEEYLDWVGSGCWNLKRIGSQGC (Ac-; -NH2; disulfide C17-C28) [Compound 2]
binding [2]: binds

Binder: TVFTSWEEYLDWVGSGCRLPWNLQRIGLPC (Ac-; -NH2; disulfide) [Compound 19]
binding [2]: binds
binding [3]: binds
binding [1]: binds

Binder: TVFTSWEEYLDWVGSGDLMPWNLVRIGLLR (Ac-; -NH2) [Compound 20]
binding [2]: binds
binding [3]: binds
binding [1]: binds

Binder: SPCRVGYTPC (Ac-; -NH2) [Compound 23]
binding [2]: binds

Binder: SGCFIPWNLQRIGLLC (free N-terminus; -NH2; disulfide) [Compound 26]
binding [2]: binds

Binder: SGDLMPWNLVRIGLLR [Compound 28]
binding [2]: binds

Binder: CFIPWNLQRIGLLC (Ac-; -NH2; disulfide) [Compound 31]
binding [2]: binds

Binder: CRLPWNLQRIGLPC (Ac-; -NH2; disulfide) [Compound 32]
binding [2]: binds
binding [3]: binds

Binder: SGSGCFIPWNLQRIGLLC (FAM (5-carboxyfluorescein) at N-terminus; -NH2; disulfide) [Compound 33]
binding [2]: binds

Binder: SGSGCRLPWNLQRIGLPC (FAM (5-carboxyfluorescein) at N-terminus; -NH2; disulfide) [Compound 34]
binding [2]: binds

Binder: ALMPWNLVRIGLLR (Ac-; -NH2) [Compound 45]
binding [2]: binds

Binder: LMPWNLVRIGLLR (Ac-; -NH2) [Compound 50]
binding [2]: binds
binding [4]: binds

Binder: MPWNLVRIGLLR (Ac-; -NH2) [Compound 51]
binding [2]: binds
binding [4]: binds

Binder: PWNLVRIGLLR (Ac-; -NH2) [Compound 52]
binding [2]: binds
binding [4]: binds

Binder: DLMPWNLVRIGLAR (Ac-; -NH2) [Compound 55]
binding [2]: binds

Binder: TVFTSWEEYLDWVGSGKLWNLGRV (Ac-; -NH2) [Compound 1]
binding [3]: binds

Binder: TVFTSWEEYLDWVGSGKLWNLGR (Ac-; -NH2) [Compound 4]
binding [3]: binds

Binder: TVFTSWEEYLDWVGSGKLWNLG (Ac-; -NH2) [Compound 5]
binding [3]: binds

Binder: TVFTSWEEYLDWVGSGKLWNL (Ac-; -NH2) [Compound 6]
binding [3]: binds

Binder: TVFTSWEEYLDWVGSGKLWN (Ac-; -NH2) [Compound 7]
binding [3]: binds

Binder: TVFTSWEEYLDWVGSGGCRLPWNLQRIGLPC (Ac-; -NH2; disulfide) [Compound 25]
binding [3]: binds

Binder: TVFTSWEEYLDWVGSGGCFLPWNLQRIGLLC (Ac-; -NH2; disulfide) [Compound 38]
binding [3]: binds

Binder: TVFTSWEEYLDWVGGSGCWNLKRIGSQGC (Ac-; -NH2; disulfide) [Compound 13]
binding [3]: binds

Binder: TVFTSWEEYLDWVGSGGCWNLKRIGSQGC (Ac-; -NH2; disulfide) [Compound 14]
binding [3]: binds

Binder: DLMPWNLVRIGLLR (Ac-; -NH2) [Compound 35]
binding [3]: binds

Binder: MCLWNLKRIGSQCEY (Ac-; -NH2; disulfide) [Compound 63]
binding [3]: binds

Continued, values first:

binding [2]: binds
Binder: CRLPWNLARIGLPC (Ac-; -NH2; disulfide) [Compound 73]

binding [2]: binds
Binder: FCLWNLKRIGAQCWF (Ac-; -NH2; disulfide) [Compound 96]

binding [3]: binds
Binder: CRLPWNLKRIGLPC (Ac-; -NH2; disulfide) [Compound 67]

binding [3]: binds
Binder: GSGCWNLKRIGSQGC (Fmoc- at N-terminus; -NH2; disulfide) [Compound 98]

binding [5]: binds
Binder: TAFTSWEEYLDWVGSGVVLWNHSRIL [SEQ ID NO 313]

binding [5]: binds
Binder: TAFTSWEEYLDWVGSGCWNLKRIGSQGC [SEQ ID NO 6]

binding [5]: binds
Binder: TAFTSWEEYLDWVGSGVPWNLARL [SEQ ID NO 314]

binding [5]: binds
Binder: TAFTSWEEYLDWVGSGVPWNLAKI [SEQ ID NO 315]

binding [5]: binds
Binder: TAFTSWEEYLDWVGSGGHPLWNLSRI [SEQ ID NO 316]

binding [5]: binds
Binder: TAFTSWEEYLDWVGSGNELWNINRLRSS [SEQ ID NO 317]

binding [5]: binds
Binder: TAFTSWEEYLDWVGSGMPWNLARIER [SEQ ID NO 318]

binding [5]: binds
Binder: TAFTSWEEYLDWVGSGALWNMRRVESVAFR [SEQ ID NO 319]

binding [5]: binds
Binder: TAFTSWEEYLDWVGSGGEYLWNLKRLES [SEQ ID NO 320]

binding [5]: binds
Binder: TAFTSWEEYLDWVGSGMVYVDRGVRVFT [SEQ ID NO 322]

binding [5]: binds
Binder: TAFTSWEEYLDWVGSGGCVKYRGSVSCQESKT [SEQ ID NO 323]

binding [5]: binds
Binder: TAFTSWEEYLDWVGSGEHQFYSYRGVDVYR [SEQ ID NO 324]

binding [5]: binds
Binder: TAFTSWEEYLDWVGSGKNNYAYLINMPRAPGI [SEQ ID NO 325]

binding [5]: binds
Binder: TAFTSWEEYLDWVGSGACLNHFVSGNMIRC [SEQ ID NO 327]

binding [5]: binds
Binder: TAFTSWEEYLDWVGSGCPFYDWRCSDFS [SEQ ID NO 328]

binding [5]: binds
Binder: TAFTSWEEYLDWVGSGNVRCYRDVPSCS [SEQ ID NO 329]

binding [5]: binds
Binder: TAFTSWEEYLDWVGSGEDVVCYGRVDYMPLCV [SEQ ID NO 330]

binding [5]: binds
Binder: TAFTSWEEYLDWVGSGNPTYWLTRIS [SEQ ID NO 331]

binding [5]: binds
Binder: TAFTSWEEYLDWVGSGPHSYWLDRVQ [SEQ ID NO 332]

binding [5]: binds
Binder: TAFTSWEEYLDWVGSGDCNLWGDDGKYRLCF [SEQ ID NO 333]

binding [5]: binds
Binder: TAFTSWEEYLDWVGSGCVKVGLSWIGDCNS [SEQ ID NO 334]

binding [5]: binds
Binder: TAFTSWEEYLDWVGSGGVLGVGGMWIA [SEQ ID NO 335]

binding [5]: binds
Binder: TAFTSWEEYLDWVGSGSYRGAWSVFGGSTD [SEQ ID NO 336]

binding [5]: binds
Binder: TAFTSWEEYLDWVGSGQCYPWCRL [SEQ ID NO 338]
